# Test results as given in the supplement of paper PMC8728848.
# This is one part of the list.
# B1: PX9916F-bfa-443-24-443 (Bacteroides fragilis) (protein)
# chain: DIRPVGSVIPQTAEEYRALLARAYLNVPNDRGLACLRSDEMLVNDNEYDRNSYGDIERWNDVSPFPGTSQFTWSNFYNVLFIANQVIESQKEITEGTPEVVNQLVGEAHLLRAYLHFVLVNLHGQPYTKSGALNSKSIPLKLDTDLEKTLGRNTVEEVYTSILSDIEHARELINKEKWETVFSYRFNVLSVDALQSRVSLYMGAWPKCLESAEAVLAKKSVLVDMNETPLALPNHFESVESITALEQVMGSSVNNAVWVPATFLALYQEGDKRLAAYFAAPDENGNRKSSKGGKREFSCTFRVGELYLNAAEAAANMDKLPHARMRLLELMRKRYTPEAYDKKENAVNVMDKNALISEILNERARELAFEGHRWFDLRRTTRPRMVKVLQGKTYILEQDDPRYTIPIPRDAIAANPGLAN
# Tests used:
# Assay in all cases: glycan array binding signal (z-score within array); higher = stronger binding
# Conditions in all cases: glycan notation: IUPAC condensed, linker removed
# [1] = biological target: Gal(b1-4)GlcNAc(b1-2)[Gal(b1-4)GlcNAc(b1-6)]Man(a1-6)[GlcNAc(b1-4)][Gal(b1-4)GlcNAc(b1-2)Man(a1-3)]Man(b1-4)GlcNAc(b1-4)GlcNAc
# Procedure, shortened: (§1)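 Columns mapping to the same glycan were averaged after glycan names were converted to IUPAC-condensed notation. The data come from 3228 arrays in the Consortium for Functional Glycomics database, limited to those with an available protein sequence. Binding is reported as a within-array Z-score averaged across arrays of one protein sequence and across linkers.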
# [2] = biological target: Gal(b1-4)GlcNAc(b1-2)[Gal(b1-4)GlcNAc(b1-6)]Man(a1-6)[GlcNAc(b1-4)][Gal(b1-4)GlcNAc(b1-2)[Gal(b1-4)GlcNAc(b1-4)]Man(a1-3)]Man(b1-4)GlcNAc(b1-4)[Fuc(a1-6)]GlcNAc
# Procedure, shortened: as §1
# [3] = biological target: Gal(b1-4)GlcNAc(b1-3)Gal(b1-3)GalNAc
# Procedure, shortened: as §1
# [4] = biological target: Gal(b1-4)GlcNAc(b1-3)Gal(b1-3)GlcNAc
# Procedure, shortened: as §1
# [5] = biological target: Gal(b1-4)GlcNAc(b1-3)Gal(b1-4)Glc
# Procedure, shortened: as §1
# [6] = biological target: Gal(b1-4)GlcNAc(b1-3)Gal(b1-4)GlcNAc
# Procedure, shortened: as §1
# [7] = biological target: Gal(b1-4)GlcNAc(b1-3)Gal(b1-4)GlcNAc(b1-2)Man(a1-3)[Gal(b1-4)GlcNAc(b1-3)Gal(b1-4)GlcNAc(b1-2)Man(a1-6)]Man(b1-4)GlcNAc(b1-4)GlcNAc
# Procedure, shortened: as §1
# [8] = biological target: Gal(b1-4)GlcNAc(b1-3)Gal(b1-4)GlcNAc(b1-2)Man(a1-3)[Gal(b1-4)GlcNAc(b1-3)Gal(b1-4)GlcNAc(b1-2)Man(a1-6)]Man(b1-4)GlcNAc(b1-4)[Fuc(a1-6)]GlcNAc
# Procedure, shortened: as §1
# [9] = biological target: Gal(b1-4)GlcNAc(b1-3)Gal(b1-4)GlcNAc(b1-2)[Gal(b1-4)GlcNAc(b1-3)Gal(b1-4)GlcNAc(b1-6)]Man(a1-6)[Gal(b1-4)GlcNAc(b1-3)Gal(b1-4)GlcNAc(b1-2)Man(a1-3)]Man(b1-4)GlcNAc(b1-4)GlcNAc
# Procedure, shortened: as §1
# [10] = biological target: Gal(b1-4)GlcNAc(b1-3)Gal(b1-4)GlcNAc(b1-2)[Gal(b1-4)GlcNAc(b1-3)Gal(b1-4)GlcNAc(b1-6)]Man(a1-6)[Gal(b1-4)GlcNAc(b1-3)Gal(b1-4)GlcNAc(b1-2)Man(a1-3)]Man(b1-4)GlcNAc(b1-4)[Fuc(a1-6)]GlcNAc
# Procedure, shortened: as §1
# [11] = biological target: Gal(b1-4)GlcNAc(b1-3)Gal(b1-4)GlcNAc(b1-3)Gal(b1-4)GlcNAc
# Procedure, shortened: as §1
# [12] = biological target: Gal(b1-4)GlcNAc(b1-3)Gal(b1-4)GlcNAc(b1-3)Gal(b1-4)GlcNAc(b1-2)Man(a1-3)[Gal(b1-4)GlcNAc(b1-3)Gal(b1-4)GlcNAc(b1-3)Gal(b1-4)GlcNAc(b1-2)Man(a1-6)]Man(b1-4)GlcNAc(b1-4)GlcNAc
# Procedure, shortened: as §1
# [13] = biological target: Gal(b1-4)GlcNAc(b1-3)Gal(b1-4)GlcNAc(b1-3)Gal(b1-4)GlcNAc(b1-2)Man(a1-3)[Gal(b1-4)GlcNAc(b1-3)Gal(b1-4)GlcNAc(b1-3)Gal(b1-4)GlcNAc(b1-2)Man(a1-6)]Man(b1-4)GlcNAc(b1-4)[Fuc(a1-6)]GlcNAc
# Procedure, shortened: as §1
# [14] = biological target: Gal(b1-4)GlcNAc(b1-3)Gal(b1-4)GlcNAc(b1-3)Gal(b1-4)GlcNAc(b1-2)[Gal(b1-4)GlcNAc(b1-3)Gal(b1-4)GlcNAc(b1-3)Gal(b1-4)GlcNAc(b1-6)]Man(a1-6)[Gal(b1-4)GlcNAc(b1-3)Gal(b1-4)GlcNAc(b1-3)Gal(b1-4)GlcNAc(b1-2)Man(a1-3)]Man(b1-4)GlcNAc(b1-4)[Fuc(a1-6)]GlcNAc
# Procedure, shortened: as §1
# [15] = biological target: Gal(b1-4)GlcNAc(b1-3)Gal(b1-4)GlcNAc(b1-3)Gal(b1-4)GlcNAc(b1-3)Gal(b1-4)GlcNAc(b1-2)Man(a1-3)[Gal(b1-4)GlcNAc(b1-3)Gal(b1-4)GlcNAc(b1-3)Gal(b1-4)GlcNAc(b1-3)Gal(b1-4)GlcNAc(b1-2)Man(a1-6)]Man(b1-4)GlcNAc(b1-4)GlcNAc
# Procedure, shortened: as §1
# [16] = biological target: Gal(b1-4)GlcNAc(b1-3)Gal(b1-4)GlcNAc(b1-3)Gal(b1-4)GlcNAc(b1-3)Gal(b1-4)GlcNAc(b1-2)Man(a1-3)[Gal(b1-4)GlcNAc(b1-3)Gal(b1-4)GlcNAc(b1-3)Gal(b1-4)GlcNAc(b1-3)Gal(b1-4)GlcNAc(b1-2)Man(a1-6)]Man(b1-4)GlcNAc(b1-4)[Fuc(a1-6)]GlcNAc
# Procedure, shortened: as §1
# [17] = biological target: Gal(b1-4)GlcNAc(b1-3)Gal(b1-4)GlcNAc(b1-3)Gal(b1-4)GlcNAc(b1-3)Gal(b1-4)GlcNAc(b1-2)[Gal(b1-4)GlcNAc(b1-3)Gal(b1-4)GlcNAc(b1-3)Gal(b1-4)GlcNAc(b1-3)Gal(b1-4)GlcNAc(b1-6)]Man(a1-6)[Gal(b1-4)GlcNAc(b1-3)Gal(b1-4)GlcNAc(b1-3)Gal(b1-4)GlcNAc(b1-3)Gal(b1-4)GlcNAc(b1-2)Man(a1-3)]Man(b1-4)GlcNAc(b1-4)[Fuc(a1-6)]GlcNAc
# Procedure, shortened: as §1
# [18] = biological target: Gal(b1-4)GlcNAc(b1-3)Gal(b1-4)GlcNAc(b1-3)Gal(b1-4)GlcNAc(b1-3)Gal(b1-4)GlcNAc(b1-3)Gal(b1-4)GlcNAc(b1-2)Man(a1-3)[Gal(b1-4)GlcNAc(b1-3)Gal(b1-4)GlcNAc(b1-3)Gal(b1-4)GlcNAc(b1-3)Gal(b1-4)GlcNAc(b1-3)Gal(b1-4)GlcNAc(b1-2)Man(a1-6)]Man(b1-4)GlcNAc(b1-4)GlcNAc
# Procedure, shortened: as §1
# [19] = biological target: Gal(b1-4)GlcNAc(b1-3)Gal(b1-4)GlcNAc(b1-3)Gal(b1-4)GlcNAc(b1-3)Gal(b1-4)GlcNAc(b1-3)Gal(b1-4)GlcNAc(b1-2)Man(a1-3)[Gal(b1-4)GlcNAc(b1-3)Gal(b1-4)GlcNAc(b1-3)Gal(b1-4)GlcNAc(b1-3)Gal(b1-4)GlcNAc(b1-3)Gal(b1-4)GlcNAc(b1-2)Man(a1-6)]Man(b1-4)GlcNAc(b1-4)[Fuc(a1-6)]GlcNAc
# Procedure, shortened: as §1
# [20] = biological target: Gal(b1-4)GlcNAc(b1-3)Gal(b1-4)GlcNAc(b1-3)Gal(b1-4)GlcNAc(b1-3)Gal(b1-4)GlcNAc(b1-3)Gal(b1-4)GlcNAc(b1-2)[Gal(b1-4)GlcNAc(b1-3)Gal(b1-4)GlcNAc(b1-3)Gal(b1-4)GlcNAc(b1-3)Gal(b1-4)GlcNAc(b1-3)Gal(b1-4)GlcNAc(b1-6)]Man(a1-6)[Gal(b1-4)GlcNAc(b1-3)Gal(b1-4)GlcNAc(b1-3)Gal(b1-4)GlcNAc(b1-3)Gal(b1-4)GlcNAc(b1-3)Gal(b1-4)GlcNAc(b1-2)Man(a1-3)]Man(b1-4)GlcNAc(b1-4)[Fuc(a1-6)]GlcNAc
# Procedure, shortened: as §1
# [21] = biological target: Gal(b1-4)GlcNAc(b1-3)Gal(b1-4)GlcNAc(b1-3)Gal(b1-4)GlcNAc(b1-3)Gal(b1-4)GlcNAc(b1-3)Gal(b1-4)GlcNAc(b1-3)Gal(b1-4)GlcNAc(b1-2)Man(a1-3)[Gal(b1-4)GlcNAc(b1-3)Gal(b1-4)GlcNAc(b1-3)Gal(b1-4)GlcNAc(b1-3)Gal(b1-4)GlcNAc(b1-3)Gal(b1-4)GlcNAc(b1-3)Gal(b1-4)GlcNAc(b1-2)Man(a1-6)]Man(b1-4)GlcNAc(b1-4)GlcNAc
# Procedure, shortened: as §1
# [22] = biological target: Gal(b1-4)GlcNAc(b1-3)Gal(b1-4)GlcNAc(b1-3)GalNAc
# Procedure, shortened: as §1
# [23] = biological target: Gal(b1-4)GlcNAc(b1-3)Gal(b1-4)GlcNAc(b1-3)[Gal(b1-4)GlcNAc(b1-3)Gal(b1-4)GlcNAc(b1-6)]GalNAc
# Procedure, shortened: as §1
# [24] = biological target: Gal(b1-4)GlcNAc(b1-3)Gal(b1-4)GlcNAc(b1-6)[Gal(b1-3)]GalNAc
# Procedure, shortened: as §1
# [25] = biological target: Gal(b1-4)GlcNAc(b1-3)Gal(b1-4)[Fuc(a1-3)]GlcNAc(b1-3)Gal(b1-4)[Fuc(a1-3)]GlcNAc
# Procedure, shortened: as §1
# [26] = biological target: Gal(b1-4)GlcNAc(b1-3)GalNAc
# Procedure, shortened: as §1
# [27] = biological target: Gal(b1-4)GlcNAc(b1-3)[Fuc(a1-3)GlcNAc(b1-6)]Gal(b1-4)Glc
# Procedure, shortened: as §1
# [28] = biological target: Gal(b1-4)GlcNAc(b1-3)[Gal(b1-4)GlcNAc(b1-6)]Gal(b1-4)GlcNAc
# Procedure, shortened: as §1
# [29] = biological target: Gal(b1-4)GlcNAc(b1-3)[GlcNAc(b1-6)]Gal(b1-4)GlcNAc
# Procedure, shortened: as §1
# [30] = biological target: Gal(b1-4)GlcNAc(b1-6)Gal(b1-4)GlcNAc
# Procedure, shortened: as §1
# [31] = biological target: Gal(b1-4)GlcNAc(b1-6)GalNAc
# Procedure, shortened: as §1
# [32] = biological target: Gal(b1-4)GlcNAc(b1-6)[Gal(b1-3)]GalNAc
# Procedure, shortened: as §1
# [33] = biological target: Gal(b1-4)GlcNAc(b1-6)[Gal(b1-4)GlcNAc(b1-3)]GalNAc
# Procedure, shortened: as §1
# Gal(b1-4)GlcNAc6P = biological target: Gal(b1-4)GlcNAc6P
# Procedure, shortened: as §1
# Gal(b1-6)Gal = biological target: Gal(b1-6)Gal
# Procedure, shortened: as §1
# Gal3S(b1-3)GalNAc = biological target: Gal3S(b1-3)GalNAc
# Procedure, shortened: as §1
# Gal3S(b1-3)GlcNAc = biological target: Gal3S(b1-3)GlcNAc
# Procedure, shortened: as §1
# [34] = biological target: Gal3S(b1-3)[Fuc(a1-4)]GlcNAc
# Procedure, shortened: as §1
binder,measurement,setting,value
B1,glycan array binding signal (z-score),[1],-1.2
same,glycan array binding signal (z-score),[2],-1.05
same,glycan array binding signal (z-score),[3],0.112
same,glycan array binding signal (z-score),[4],-1.19
same,glycan array binding signal (z-score),[5],-0.479
same,glycan array binding signal (z-score),[6],-0.513
same,glycan array binding signal (z-score),[7],1.21
same,glycan array binding signal (z-score),[8],0.44
same,glycan array binding signal (z-score),[9],0.786
same,glycan array binding signal (z-score),[10],2.26
same,glycan array binding signal (z-score),[11],-0.576
same,glycan array binding signal (z-score),[12],0.837
same,glycan array binding signal (z-score),[13],2.81
same,glycan array binding signal (z-score),[14],1.15
same,glycan array binding signal (z-score),[15],-0.669
same,glycan array binding signal (z-score),[16],-0.06
same,glycan array binding signal (z-score),[17],0.287
same,glycan array binding signal (z-score),[18],0.013
same,glycan array binding signal (z-score),[19],0.299
same,glycan array binding signal (z-score),[20],0.638
same,glycan array binding signal (z-score),[21],-0.582
same,glycan array binding signal (z-score),[22],-0.677
same,glycan array binding signal (z-score),[23],1.47
same,glycan array binding signal (z-score),[24],0.367
same,glycan array binding signal (z-score),[25],-0.167
same,glycan array binding signal (z-score),[26],-0.724
same,glycan array binding signal (z-score),[27],-0.52
same,glycan array binding signal (z-score),[28],-0.736
same,glycan array binding signal (z-score),[29],0.609
same,glycan array binding signal (z-score),[30],-0.441
same,glycan array binding signal (z-score),[31],1.24
same,glycan array binding signal (z-score),[32],-0.4
same,glycan array binding signal (z-score),[33],-0.27
same,glycan array binding signal (z-score),Gal(b1-4)GlcNAc6P,0.285
same,glycan array binding signal (z-score),Gal(b1-6)Gal,-0.05
same,glycan array binding signal (z-score),Gal3S(b1-3)GalNAc,-0.858
same,glycan array binding signal (z-score),Gal3S(b1-3)GlcNAc,0.98
same,glycan array binding signal (z-score),[34],-0.394

# Copied from above (two entries):
binder,measurement,setting,value
B1,glycan array binding signal (z-score),Gal3S(b1-3)GlcNAc,0.98
same,glycan array binding signal (z-score),[34],-0.394
